Library screen at single concentrations

A: 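Phenotypic screen: M. tuberculosis growth, glucose 7H9 medium, 3 days; the read-out is not stated. Compounds at 50 µM. Higher reads as more growth inhibition (inferred: compounds with an IC50 in retests scored well above the rest). About 69,000 compounds were tested under these conditions; 1.1% (about 760) showed 50% or more at least once.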
B: 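Growth of Mycobacterium tuberculosis over 4 days (cholesterol / DPPC medium with tyloxapol); the read-out is not stated. Compounds at 50 µM. Higher reads as more growth inhibition (inferred: compounds with an IC50 in retests scored well above the rest). Of about 69,000 compounds tested this way, about 370 (0.54%) reached 50% or more in at least one test.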

The filed quantity is “Percent Effect” (%).
The controls that fix the scale are not given in the record; negative values are as filed.
The compounds are a random part of those screened.
Two or more numbers in one place are separate tests of the same structure; such repeats can differ widely.

| Compound | A | B |
|---|---|---|
| `CSCCC(=O)N1CCCC(n2ccnc2)C1` (centres undefined) | 12.03 | -7.897 |
| `Cc1ccn(-c2ccnc(N3CCSCC3)n2)n1` | 28.03 | 6.071 |
| `Cc1ccc(C2CSCCN2C(=O)c2ccc(C(N)=O)cc2)o1` (centres undefined) | 28.3 | 3.079 |
| `O=C(O)C(F)(F)F.O=C(O)C(F)(F)F.[H][C@@]12COC[C@]1(COCC(=O)N(C)C)CN(Cc1cccnc1OC)C2` | 3.164 | -8.363 |
| `Cc1cnc(CNC(=O)N(CCCO)C2CCc3ccccc32)s1` (centres undefined) | 6.838 | -3.358 |
| `COc1ccccc1N1CCN(C(=O)CCn2ccc(C)n2)CC1(C)C` | -4.865 | 3.732 |
| `CC(C)c1nc(CN(C)C(=O)c2cn3ccsc3n2)cs1` | -1.401 | -11.18 |
| `Cc1nnc2ccc(N3CCC(C(=O)Nc4nccs4)CC3)nn12` | 5.506 | -29.19 |
| `COCCC(=O)N1CCc2c(CNc3ncccn3)cncc2C1.Cl` | -7.19 and -2.17 | -4.732 |
| `CCC(CNC1CCN(C(C)=O)CC1)Oc1cccc(C)c1` (centres undefined) | -14.64 | -9.57 |
| `O=C(NC1CCS(=O)(=O)C1)c1ccccc1SCc1cscn1` (centres undefined) | -18.56 | -13.94 |
| `Cc1nnc(CN2CCOC(c3ccc(Cl)c(Cl)c3)C2)o1` (centres undefined) | 9.418 and -1.027 | 15.44 |
| `CCOc1ncccc1CNCc1c(C)nn(C)c1N(C)C` | 6.258 | -22.11 |
| `Nc1cc(-c2cccs2)nn(CC(=O)N2CCc3ccccc32)c1=O` | -8.308 | -7.025 |
| `O=C(NCc1ccc(-n2cncn2)nc1)c1ccc2c(c1)CCC2` | -7.285 | -12.9 |
| `CC(C)n1cnc(C2CN(C)c3ccc(C(=O)NCC4CC4)cc32)n1` (centres undefined) | 10.65 and -10.31 | 77.54 and -21.96 |
| `Cc1n[nH]c2c1C(c1ccc(O)c(Cl)c1)SCC(=O)N2` (centres undefined) | 15.18 | 20.78 |
| `O=C(NC1CC1)C1CCCN1c1ncnc2ccsc12` (centres undefined) | -17.02 and -1.463 | -2.137 |
| `Cl.O=C(NCCn1nc(C2CCNC2)c2cccnc21)c1ccccn1` (centres undefined) | -0.1503 | -9.031 |
| `Cn1cnc(-c2ccc(F)cc2)c1NC(=O)CCNC(=O)C(C)(C)C` | 33.94 and -4.26 | -5.544 |
| `O=C(CCCOc1cccc(F)c1)N1CCCC(n2cccn2)C1` (centres undefined) | 14.52 | 1.655 |
| `CCCc1cc(C(=O)NCCn2nc3ccccn3c2=O)[nH]n1` | -11.54 | 4.88 |
| `COCCOc1ccnc(-c2noc([C@@H]3CCCN3CC3CC3)n2)c1` | -22.66 and 0.7466 | -3.774 |
| `COc1ncc(NCc2ccc(Cl)c(Cl)c2)cc1C(N)=O` | 28.31 | 22.65 |
| `CCc1nc(C)c(C(=O)NCCN2CCC(C)CC2)s1` | 1.89 | -0.2721 |
| `CCOCCN1CCN(Cc2cccc(C(=O)N(C)C)c2)CC1CC` (centres undefined) | -8.9 | 3.391 |
| `Cc1cc(Cl)ccc1C(=O)N1C[C@H](C2CC2)[C@@H](N)C1` | 0.0496 and 9.614 | -3.66 |
| `COCCn1ccnc1C1CCN(C(=O)C(O)c2ccc(F)cc2)CC1` (centres undefined) | 21.35 | -10.3 |
| `Cn1cnnc1CNC(=O)Nc1ccc(OC2CCC2)c(F)c1` | 13.86 | -4.118 and 8.356 |
| `Cn1ncc2c(NC3CCSC3)nc(-c3ccncc3)nc21` (centres undefined) | -25.17 | -41.86 |
| `Cc1nn(CC(=O)N2CCN(c3ccc(F)cc3)CC2)c(C)c1Cl` | -11.42 | -28.57 |
| `CN(C)C(=O)N1CCC2(CCCN(CCOc3ccccc3)C2)C1.O=C(O)C(F)(F)F` (centres undefined) | -5.523 | 1.883 and -0.643 |
| `CN(CCNC(=O)N1CCN(Cc2ccon2)CC1)c1ccccc1` | 1.375 | 13.03 |
| `CC(C)N1CC(n2ccnc2-c2nccn2C)CC1=O` (centres undefined) | -15.77 | 10.16 |
| `CC(C)N1CC(C(=O)NCc2ccc(S(=O)(=O)N(C)C)cc2)CC1=O` (centres undefined) | -8.936 | -4.178 and 74.24 |
| `CN(C)c1ccc(C(CNS(=O)(=O)c2cccs2)N2CCCC2)cc1` (centres undefined) | -5.759 | -19.61 |
| `Cc1cc(C2CCCN(CCCS(N)(=O)=O)C2)n[nH]1` (centres undefined) | -12.19 and -1.127 | -3.763 |
| `Cn1nc(Br)c2c(NCCSCCCO)ncnc21` | 43.35 | -0.8845 |
| `Cc1ccc(C(=O)O)cc1-c1cccc2c1CCNC2` | -19.36 and -7.873 | -15.76 |
| `Cc1nnc2n1CCN(Cc1csc(-c3ccc(F)cc3)n1)C2` | 24.44 | 3.927 |
| `COC(=O)c1oc(CNC(C)(C)CO)cc1C` | -4.779 and 10.54 | -5.25 |
| `CCC(C)c1noc(C2CCN(C(=O)Cn3nc(C)cc3C)CC2)n1` (centres undefined) | -11.36 | -17.98 |
| `COc1nc(N2CCN(C(C)=O)CC2)ncc1Br` | 16.63 and 2.375 | 7.005 |
| `CCS(=O)(=O)c1ncc(CN2CCSCC2)n1CCc1ccccc1` | 6.078 | 6.346 |
| `Cc1nc(CCNCc2c(C)nn(C)c2N2CCOCC2)cs1` | -10.04 | -13.65 |
| `CCOC(=O)c1coc(N2CCC(C(C)N3CCCC3)CC2)n1` (centres undefined) | 11.95 | 14.16 |
| `COc1c(C2CCCN2C(=O)c2cccnc2N(C)C)c(C)nn1C` (centres undefined) | -20.61 | -8.746 |
| `Cn1ccnc1CN1CCCN(Cc2noc(C3CC3)n2)CC1` | -24.24 | -35.56 |
| `Cc1cc(C(=O)Nc2cnn(CC(F)(F)F)c2)nc(N2CCOCC2)n1` | 14.36 | -33.4 |
| `Cn1cc(CN2CC3(CCN(C(=O)c4cscn4)C3)C2)cn1` | 18.58 | -0.8799 |
| `O=C(c1cscn1)N1CCC[C@]2(C[C@@H](OCC3CC3)CO2)C1` | -2.399 | -8.609 and 22.4 |
| `CCOCCCC(=O)NCc1ccc(N2CCCCC2)cc1` | -3.694 | 6.064 |
| `N#CCC(=O)NCc1nnc2n1CCN(Cc1ccsc1)C2` | 9.691 and -1.641 | 9.767 |
| `O=C(CN1CCN(c2ncnc3cccc(F)c23)CC1)N1CCCC1` | 0.2215 and -27.41 | -13.48 |
| `CCc1noc(CC)c1CC(=O)N1CCN(C(C#N)C(C)C)CC1` (centres undefined) | 22.92 | -11.83 |
| `Cc1ncsc1CCC(=O)N1CCn2cccc2C1c1cccnc1` (centres undefined) | -1.147 | 4.754 |
| `Cc1nc(N2CCC(C(O)c3nccn3C)CC2)c2nc(C)oc2n1` (centres undefined) | -5.386 | 17.91 |
| `Cc1ccc(C2CN(CCCC#N)CCO2)c(C)c1` (centres undefined) | 10.28 and 6.992 | -13.66 |
| `CC(C)(C)C(O)CN1CCN(C(=O)c2ccc3c(c2)COC3)CC1` (centres undefined) | -37.33 | -6.526 |
| `CSCCC1c2nc[nH]c2CCN1Cc1ccnc2ccccc12` (centres undefined) | 19.02 | -9.741 |
| `CC(=O)N1CCCc2sc(C(=O)Nc3ccc(C)nc3)nc21` | 4.78 and 10.56 | 11.85 |
| `O=C(Cn1cnc2ccccc2c1=O)Nc1cc(C2CC2)n[nH]1` | -25.14 | -20.29 |
| `CO[C@@H]1CC[C@@H](NC(=O)CCc2ccc(Cl)cc2)[C@H]1O` | 16.63 | -6.873 and 1.093 |
| `Cn1ccnc1CN1CCc2onc(COCC3CC3)c2C1.O=C(O)C(F)(F)F` | 3.517 | -9.533 |
| `c1ccc(-c2nc(CN3CCOC(Cn4cccn4)C3)co2)cc1` (centres undefined) | 14.93 | -12.78 |
| `O=C(CN1C(=O)CCC1=O)NCC1(O)CCc2ccccc21` (centres undefined) | -18.75 | -16.31 |
| `Cc1cc(C)c2nc(CNCCNS(C)(=O)=O)cc(O)c2c1` | -17.76 | 9.227 |
| `Cc1ccc(C(=O)N2CCC3(CCC(=O)N(CCN(C)C)C3)CC2)nc1` | -14.69 | -3.014 and -5.049 |
| `CCn1c(N)nc2cc(C(=O)NCc3ccccc3Cl)cnc21` | -2.602 and 7.129 | 1.122 |
| `Cc1ncc(C(=O)N2CCCC(Cc3nccs3)C2)cn1` (centres undefined) | -8.542 | -12.04 |
| `Cc1nn(C)c(Cl)c1C1CCCN1C(=O)c1nccnc1N` (centres undefined) | -4.625 | 0.4575 |
| `Cc1cc(SC(C)(C)C)ccc1NCC(=O)NC(N)=O` | 5.051 and 16.83 | 2.788 and -4.767 |
| `Cn1nc(C(=O)NCc2cccnc2)c2c1CCS(=O)(=O)C2` | -79.27 | -46.32 |
| `COCCN(C)C[C@@H]1CN(C(=O)c2cccc(Cl)c2)C[C@@H]1CO` | 10.6 | -1.187 |
| `CCn1cc(NC(=O)NCC(c2ccc(OC)cc2)N(C)C)cn1` (centres undefined) | 15.49 | -14.98 |
| `COCCN1CCN(S(=O)(=O)C2CC2)Cc2ccc(C)nc21.O=C(O)C(F)(F)F` | -34.92 and -8.087 | -10.14 |
| `COCC1CCN(S(=O)(=O)c2ccc(C(=O)NCC(F)F)cc2)C1` (centres undefined) | -11.05 | 0.4891 |
| `O=C(NCC(=O)N1CCCCC1)c1ccc(Cl)cc1I` | 19.36 | 26.66 |
| `O=C(CCN1CCCCCC1c1ccco1)N1CCOCC1` (centres undefined) | -3.296 and -1.279 | 5.36 |
| `CCNC(=O)[C@@H]1C[C@H](NC(=O)Cc2ccsc2)CN1Cc1ccc(C)o1` | -7.103 | -0.188 |

Some entries from above, unchanged:

For CC(C)n1cnc(C2CN(C)c3ccc(C(=O)NCC4CC4)cc32)n1 (centres undefined) the result was A: 10.65% and -10.31%; B: 77.54% and -21.96%.
For CN(CCNC(=O)N1CCN(Cc2ccon2)CC1)c1ccccc1 the result was A: 1.375%; B: 13.03%.
For CCc1nc(C)c(C(=O)NCCN2CCC(C)CC2)s1 the result was A: 1.89%; B: -0.2721%.
For O=C(CN1CCN(c2ncnc3cccc(F)c23)CC1)N1CCCC1 the result was A: 0.2215% and -27.41%; B: -13.48%.

The values are deposited in ChEMBL (CHEMBL3988442, “University of Dundee, Small-Polar-MMV Screening Library” (2021)).